According to patent US20110218188A1, “SUBSTITUTED (PYRIDYL)-AZINYLAMINE DERIVATIVES AS FUNGICIDES” (priority 2008, published 2011):
Some entries share one result that the patent states for a list of compounds.

Columns and labels:
[1] = system: Botrytis cinerea; assay: In vivo test on Botrytis cinerea (grey mould); conditions: dose of 500 ppm; gherkin plants sprayed 24 hours before contamination; grading 5/7 days after the contamination
[2] = system: Mycosphaerella graminicola; assay: In vivo test on Mycosphaerella graminicola (wheat leaf spot); conditions: dose of 500 ppm; wheat plants sprayed 24 hours before contamination; grading (% of efficacy) 21 to 28 days after the contamination
[3] = system: Pyrenophora teres; assay: In vivo test on Pyrenophora teres (barley net blotch); conditions: dose of 500 ppm; barley plants sprayed 24 hours before contamination; grading 12 days after the contamination
[4] = system: Puccinia recondita; assay: In vivo test on Puccinia recondita (brown rust); conditions: dose of 500 ppm; wheat plants sprayed 24 hours before contamination; grading 10 days after the contamination
[5] = system: Sphaerotheca fuliginea; assay: In vivo test on Sphaerotheca fuliginea (cucurbits powdery mildew); conditions: dose of 500 ppm; gherkin plants sprayed 24 hours before contamination; grading (% of efficacy) 12 days after the contamination
[6] = system: Venturia inaequalis; assay: Venturia test (apples)/protective; assay type: in vivo; conditions: 100 ppm of active ingredient, protective, evaluated 10 days after the inoculation
[7] = system: Fusarium nivale (var. majus); assay: Fusarium nivale (var. majus)-test (wheat)/preventive; conditions: 1000 ppm of active ingredient, preventive, evaluated 5 days after the inoculation
[8] = system: Alternaria brassicae; assay: In vivo test on Alternaria brassicae (leaf spot of crucifers); conditions: dose of 500 ppm; radish plants sprayed 24 hours before contamination; grading 6 to 7 days after the contamination
[9] = system: Peronospora parasitica; assay: In vivo test on Peronospora parasitica (crucifer downy mildew); conditions: dose of 500 ppm; cabbage plants sprayed 24 hours before contamination; grading 5 days after the contamination, in comparison with the control plants
[10] = system: Leptosphaeria nodorum; assay: Leptosphaeria test (wheat)/preventive; conditions: 500 ppm of active ingredient, preventive, evaluated 7-9 days after the inoculation
[11] = system: Uromyces appendiculatus; assay: Uromyces test (beans)/protective; assay type: in vivo; conditions: 100 ppm of active ingredient, protective, evaluated 10 days after the inoculation
[12] = system: Puccinia triticina; assay: Puccinia triticina-test (wheat)/preventive; conditions: 1000 ppm of active ingredient, preventive, evaluated 8 days after the inoculation

SMILES | good (at least 70%) or total protection [1] | good (at least 70%) protection [3] | good (at least 70%) or total protection [4] | good (at least 70%) or total protection [5] | good protection (at least 70%) [8] | other results
CN(CCC#N)C(=O)c1cc(-c2ncnc(Nc3ccsc3)n2)ccn1 [Example C12] | at least 70% | at least 70% | at least 70% | – | – | good (at least 70%) or total protection [2]: at least 70%
CCN(C)C(=O)c1cc(-c2ncnc(Nc3ccc(OC)nc3)n2)ccn1 [Example C10] | – | at least 70% | at least 70% | at least 70% | – | –
CC(C)=CCN(C)C(=O)c1cc(-c2ccnc(Nc3ccnc(Cl)c3)n2)ccn1 [Example A30] | at least 70% | at least 70% | – | at least 70% | – | efficacy [6]: ≥ 70%; efficacy [7]: ≥ 70%
CC1CCN(C(=O)c2cc(-c3ncnc(Nc4cccc(Cl)c4)n3)ccn2)CC1 [Example B131] | at least 70% | at least 70% | – | – | at least 70% | –
CC(C)N(C)C(=O)c1cc(-c2ncnc(Nc3cccc(Cl)c3)n2)ccn1 [Example B158] | – | at least 70% | at least 70% | – | at least 70% | good (at least 70%) or total protection [9]: at least 70%
CCOC1CCC(NC(=O)c2cc(-c3ncnc(Nc4cccc(Cl)c4)n3)ccn2)CC1 (stereo not drawn) [Example B97] | – | – | – | – | at least 70% | –
CCCN(C(=O)c1cc(-c2ncnc(Nc3cccc(Cl)c3)n2)ccn1)C(C)CC (stereo not drawn) [Example B171] | – | at least 70% | – | – | at least 70% | –
CCN(CC)C(=O)c1cc(-c2ncnc(Nc3cccc(Cl)c3)n2)ccn1 [Example B130] | at least 70% | at least 70% | at least 70% | – | at least 70% | good (at least 70%) or total protection [9]: at least 70%
CC(=NNCCC#N)c1cc(-c2ncnc(Nc3cccc(Cl)c3)n2)ccn1 [Example B81, 3-{2-[1-(4-{4-[(3-chlorophenyl)amino]-1,3,5-triazin-2-yl}pyridin-2-yl)ethylidene]hydrazinyl}propanenitrile] | – | at least 70% | – | – | – | efficacy [10]: ≥ 70%; good (at least 70%) or total protection [2]: at least 70%; efficacy [7]: ≥ 70%
CCCN(CC)C(=O)c1cc(-c2ccnc(Nc3ccnc(Cl)c3)n2)ccn1 [Example A26] | at least 70% | – | – | at least 70% | – | –
O=C(c1cc(-c2ccnc(Nc3ccnc(Cl)c3)n2)ccn1)N1CCCCC1 [Example A5] | – | – | at least 70% | at least 70% | – | good (at least 70%) or total protection [9]: at least 70%
CCN(CC)C(=O)c1cc(-c2ccnc(Nc3ccnc(Cl)c3)n2)ccn1 [Example A27] | at least 70% | – | – | at least 70% | – | –
O=C(c1cc(-c2ncnc(Nc3cccc(Cl)c3)n2)ccn1)N1CCCCCC1 [Example B138] | – | – | – | – | at least 70% | –
COCC(C)NC(=O)c1cc(-c2ncnc(Nc3ccc(C)c(Cl)c3)n2)ccn1 (stereo not drawn) [Example B225] | – | – | – | at least 70% | – | –
CCC(=NOCC1CC1)c1cc(-c2ncnc(Nc3cccc(Cl)c3)n2)ccn1 (mixture of isomers) [Example B54] | – | – | – | – | at least 70% | –
COCc1cccc(Nc2ncnc(-c3ccnc(C(=O)N(C)CC(C)C)c3)n2)c1 [Example B244] | at least 70% | at least 70% | – | at least 70% | – | good (at least 70%) or total protection [9]: at least 70%
CC1CCCN1C(=O)c1cc(-c2ncnc(Nc3cccc(Cl)c3)n2)ccn1 (stereo not drawn) [Example B152] | at least 70% | at least 70% | at least 70% | – | at least 70% | good (at least 70%) or total protection [9]: at least 70%
O=C(c1cc(-c2ncnc(Nc3cccc(Cl)c3)n2)ccn1)N1CCCCC1CO (stereo not drawn) [Example B165] | at least 70% | at least 70% | at least 70% | – | at least 70% | good (at least 70%) or total protection [9]: at least 70%

SMILES | good (at least 70%) or total protection [1] | good (at least 70%) protection [3] | good (at least 70%) or total protection [4] | good (at least 70%) or total protection [5] | good protection (at least 70%) [8] | other results
CC1CCCN(C(=O)c2cc(-c3ncnc(Nc4cccc(Cl)c4)n3)ccn2)C1C (stereo not drawn) [Example B137] | – | at least 70% | – | – | at least 70% | good (at least 70%) or total protection [2]: at least 70%
CCC(C)NC(=O)c1cc(-c2ncnc(Nc3cccc(Cl)c3)n2)ccn1 (stereo not drawn) [Example B94] | – | – | – | – | at least 70% | –
CN(C)C(=O)c1cc(-c2ccnc(Nc3ccnc(Cl)c3)n2)ccn1 [Example A32] | at least 70% | at least 70% | at least 70% | at least 70% | – | efficacy [6]: ≥ 70%; efficacy [11]: ≥ 70%; efficacy [12]: ≥ 70%
CCCCNC(=O)c1cc(-c2ncnc(Nc3cccc(Cl)c3)n2)ccn1 [Example B93] | – | – | – | – | at least 70% | –
CCN(C)C(=O)c1cc(-c2ncnc(Nc3cccc(C(C)C)c3)n2)ccn1 [Example B258] | – | at least 70% | – | at least 70% | – | good (at least 70%) or total protection [9]: at least 70%
CCN(C)C(=O)c1cc(-c2ccnc(Nc3ccnc(C(F)(F)F)c3)n2)ccn1 [Example A18] | – | – | at least 70% | at least 70% | – | –
CC(C)NC(=O)c1cc(-c2ncnc(Nc3cccc(Cl)c3)n2)ccn1 [Example B91] | – | – | – | – | at least 70% | –
CCC(C)N(C)C(=O)c1cc(-c2ccnc(Nc3ccnc(Cl)c3)n2)ccn1 (stereo not drawn) [Example A29] | at least 70% | at least 70% | – | at least 70% | – | efficacy [6]: ≥ 70%; efficacy [11]: ≥ 70%; efficacy [12]: ≥ 70%; efficacy [7]: ≥ 70%
CCCN(C)C(=O)c1cc(-c2ncnc(Nc3ccc(OC)nc3)n2)ccn1 [Example C5] | at least 70% | at least 70% | at least 70% | at least 70% | – | –
CCN(C)C(=O)c1cc(-c2ncnc(Nc3cccc(Cl)c3)n2)ccn1 [Example B157] | at least 70% | at least 70% | at least 70% | – | – | good (at least 70%) or total protection [2]: at least 70%; good (at least 70%) or total protection [9]: at least 70%
CC(=NNCC(F)(F)F)c1cc(-c2ncnc(Nc3cccc(Cl)c3)n2)ccn1 [Example B76] | – | at least 70% | – | – | – | good (at least 70%) or total protection [2]: at least 70%; good (at least 70%) or total protection [9]: at least 70%
O=C(c1cc(-c2ncnc(Nc3cccc(Cl)c3)n2)ccn1)N1CCCCC1 [Example B115] | at least 70% | at least 70% | – | – | at least 70% | efficacy [10]: ≥ 70%
CCN(CC1CCCO1)C(=O)c1cc(-c2ncnc(Nc3cccc(Cl)c3)n2)ccn1 (stereo not drawn) [Example B167] | – | at least 70% | – | – | at least 70% | –
CN(CCC#N)C(=O)c1cc(-c2ccnc(Nc3ccnc(Cl)c3)n2)ccn1 [Example A24] | – | – | – | at least 70% | – | –
COCc1cccc(Nc2ncnc(-c3ccnc(C(=O)N(C)CCC#N)c3)n2)c1 [Example B239] | – | at least 70% | – | at least 70% | – | efficacy [6]: ≥ 70%; efficacy [11]: ≥ 70%; good (at least 70%) or total protection [9]: at least 70%
CCN(CC(C)(C)O)C(=O)c1cc(-c2ncnc(Nc3cccc(Cl)c3)n2)ccn1 [Example B166] | – | at least 70% | – | – | at least 70% | good (at least 70%) or total protection [2]: at least 70%
O=C(NCCCO)c1cc(-c2ncnc(Nc3cccc(Cl)c3)n2)ccn1 [Example B183] | – | at least 70% | – | – | at least 70% | –
CN1CCN(C(=O)c2cc(-c3ncnc(Nc4cccc(Cl)c4)n3)ccn2)CC1 [Example B184] | – | at least 70% | – | – | at least 70% | –
